Test results taken from paper PMC9891717.
No constants are given. Whether binding was seen depends on the method and setting. In cells and extracts the contact can be indirect. Some binding calls cover weakened binding; strength is not graded here. Sequences can lack the tags named with a protein.

Target: T1, Wfs1-mCherry (wolframin fused to mCherry) (UniProt P56695)
T1 sequence: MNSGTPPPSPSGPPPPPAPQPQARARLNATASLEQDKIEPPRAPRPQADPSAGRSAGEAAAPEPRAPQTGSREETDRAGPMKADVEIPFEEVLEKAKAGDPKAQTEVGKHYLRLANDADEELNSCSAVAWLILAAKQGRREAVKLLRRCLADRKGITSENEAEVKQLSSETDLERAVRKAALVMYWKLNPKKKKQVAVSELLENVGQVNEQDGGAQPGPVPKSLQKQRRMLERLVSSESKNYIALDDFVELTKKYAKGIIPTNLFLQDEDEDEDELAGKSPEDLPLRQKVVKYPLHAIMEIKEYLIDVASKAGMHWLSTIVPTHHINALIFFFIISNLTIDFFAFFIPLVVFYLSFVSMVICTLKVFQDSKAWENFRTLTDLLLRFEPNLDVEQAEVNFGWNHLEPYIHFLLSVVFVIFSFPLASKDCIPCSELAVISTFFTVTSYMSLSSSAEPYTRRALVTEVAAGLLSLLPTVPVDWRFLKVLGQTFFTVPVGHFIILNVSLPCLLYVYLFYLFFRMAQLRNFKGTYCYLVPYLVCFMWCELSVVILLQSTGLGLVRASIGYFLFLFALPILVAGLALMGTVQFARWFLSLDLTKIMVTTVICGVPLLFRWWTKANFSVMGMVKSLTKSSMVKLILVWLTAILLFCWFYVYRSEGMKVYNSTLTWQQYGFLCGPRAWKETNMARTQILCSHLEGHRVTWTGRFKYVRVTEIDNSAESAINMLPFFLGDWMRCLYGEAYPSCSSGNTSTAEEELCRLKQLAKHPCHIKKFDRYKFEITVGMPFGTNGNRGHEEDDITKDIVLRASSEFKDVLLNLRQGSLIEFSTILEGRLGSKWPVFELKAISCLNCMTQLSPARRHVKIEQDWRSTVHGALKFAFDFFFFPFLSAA
Assay: co-IP; HEK-293T cells transiently co-transfected with Wfs1-mCherry and Mct1-V5; lysis in IP buffer (20 mM Tris-HCl pH 7.5, 150 mM NaCl, 1 mM EDTA, 1 mM EGTA, 1% Triton X-100); anti-RFP immunoprecipitation overnight at 4 °C on Dynabeads Protein G, 8 washes; blot for RFP and V5; isotype antibody as negative control

B1: Mct1-V5 (monocarboxylate transporter isoform 1 with V5 tag) (protein, UniProt P53986 1-493)
chain: MPPAIGGPVGYTPPDGGWGWAVLVGAFISIGFSYAFPKSITVFFKEIEVIFSATTSEVSWISSIMLAVMYAGGPISSILVNKYGSRPVMIAGGCLSGCGLIAASFCNTVQELYLCIGVIGGLGLAFNLNPALTMIGKYFYKKRPLANGLAMAGSPVFLSTLAPLNQAFFDIFDWRGSFLILGGLLLNCCVAGSLMRPIGPEQVKLEKLKSKESLQEAGKSDANTDLIGGSPKGEKLSVFQTINKFLDLSLFTHRGFLLYLSGNVVMFFGLFTPLVFLSSYGKSKDFSSEKSAFLLSILAFVDMVARPSMGLAANTKWIRPRIQYFFAASVVANGVCHLLAPLSTTYVGFCVYAGVFGFAFGWLSSVLFETLMDLIGPQRFSSAVGLVTIVECCPVLLGPPLLGRLNDMYGDYKYTYWACGVILIIAGIYLFIGMGINYRLLAKEQKAEEKQKREGKEDEASTDVDEKPKETMKAAQSPQQHSSGDPTEEESPV
In the case of B1, the binding is reported as “binds”.
